Test results from PubChem BioAssay AID504834 (National Center for Advancing Translational Sciences (NCATS), 2011).
Among all 320,000 compounds or so, about 22,000 (6.9%) were called active. The inconclusive results got no clear call from the source; some entries with a clear call stand among them for comparison. Calls come from the whole dose curve; as a rule, active = well fitted inhibition curve with a large enough effect; inconclusive = small, poorly fitted or top-dose-only effect, or another doubt; inactive = no such curve, though single readings can be large or run the other way. Where the call is inconclusive, the potency comes from a doubtful curve fit.

Assay: Primary qHTS for delayed death inhibitors of the malarial parasite plastid, 96 hour incubation
Details: P. falciparum luciferase reporter growth; series mostly up to 28.7 µM; activity change, negative = inhibition: at the top concentration
Method in brief: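 Parasite growth measured via integrated firefly luciferase reporter in P. falciparum. Infected erythrocytes at 2% hematocrit, 0.05% parasitemia final were treated 96 hours at 37 C under 5% CO2, and luminescence was read.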
% is set by controls: 0 for no effect and ±100 for the full control effect; potency is the fitted concentration of half-maximal effect.

Row | SMILES | Potency | activity change, negative = inhibition
1 | COc1ccccc1NC(=O)N1C2CCCC1CC(NC(=O)c1ccccc1)C2 (stereo not given) | inconclusive: 18.5 µM [inhibitor, single point] | 
2 | COc1ccc2c(c1)c(C(=O)N/N=C/c1ccc(OC)c(OC)c1)c(C)n2C | active: 14.7 µM | 
3 | O=C(c1cc(-c2ccc(Cl)cc2Cl)on1)N1CCCC1 | inconclusive: 14.7 µM [inhibitor, partial curve, poor fit] | 
4 | COc1ccccc1CCNC(=O)C1CCC(=O)N(Cc2cccc(F)c2)C1 (stereo not given) | inconclusive: 20.8 µM [inhibitor, partial curve, poor fit] | 
5 | CCOC(=O)c1ccc(NC(=S)N2CCN(C)CC2)cc1 | inconclusive: 18.5 µM [inhibitor, single point] | 
6 | Cc1cc(C)c(N=Cc2c(O)n(-c3nccs3)c(=O)c3ccccc23)c(C)c1 | inconclusive: 10.4 µM [inhibitor, single point] | 
7 | Cc1ccc(C23CC4CC(CC(CN)(C4)C2)C3)cc1 | inconclusive: 13.1 µM [inhibitor, single point] | 
8 | CCOC(=O)C1=C(N)Oc2c(oc(CO)cc2=O)C1c1ccccc1 (stereo not given) | inconclusive: 0.928 µM [inhibitor, full curve, poor fit] | 
9 | COc1ccc(-n2ncc3c2CC(C)(C)CC3NC(=O)CCN2CCCCC2=O)cc1 (stereo not given) |  | inactive: -12.8%
10 | COC(=O)c1cccc(NC(=S)N2CCCCC2)c1 | inconclusive: 9.28 µM [inhibitor, partial curve, poor fit] | 
11 | CC(C)(C)NC(=O)NC12CC3CC(CC(C3)C1)C2 |  | inactive: 15.5%
12 | CCCc1nc2cc(CC(=O)OC)ccc2o1 |  | inactive: 49.7%
13 | CC1(OC(=O)CCc2ccccc2)C(=O)C=C2C=C(c3ccc(C#N)cc3)N(C(CO)CO)C=C2C1=O (stereo not given) | inconclusive: 14.7 µM [inhibitor, partial curve] | 
14 | O=C(NC1CC1)c1ccc(CS(=O)c2ccc(Br)cc2)o1 (stereo not given) | active: 10.4 µM | 
15 | O=C(CSc1nc2ccc(Cl)cc2[nH]1)NC1CCCC1 | inconclusive: 0.294 µM [inhibitor, partial curve, poor fit] | 
16 | Cc1ccc(S(=O)(=O)NCCC(=O)OCC(=O)NC(=O)c2cccn2C)cc1 |  | inactive: 38.8%
17 | CCN1CCCC1CNC(=O)c1cc([N+](=O)[O-])c(N(C)C)cc1OC (stereo not given) | active: 4.15 µM | 
18 | Cc1cc(OCC(=O)N2CCC[C@@H]2C(=O)O)c2c(C)c(C)c(=O)oc2c1 | inconclusive: 6.57 µM [inhibitor, partial curve, poor fit] | 
19 | Cc1c(C(=O)Nc2ccccc2N2CCOCC2)sc2nc3n(c(=O)c12)CCC3 | inconclusive: 13.1 µM [inhibitor, single point] | 
20 | COCCN(Cc1ccccc1)C(=O)c1ccc(C(=O)c2ccccc2)cc1 | inconclusive: 16.5 µM [inhibitor, single point] | 
21 | CCCC(C(=O)Nc1ccc2c(C)cc(=O)oc2c1)c1ccccc1 (stereo not given) | inconclusive: 18.5 µM [inhibitor, partial curve, poor fit] | 
22 | CCOC(=O)c1ccc(NC(=O)CCc2ccc(CC)o2)cc1 | inconclusive: 11.7 µM [inhibitor, single point] | 
23 | O=C(CN1CCN(c2ccccc2O)CC1)Nc1cc(S(=O)(=O)N2CCCC2)ccc1Cl | active: 3.29 µM | 

Reformatted in markdown: part of the list above

| Row | SMILES | Potency | activity change, negative = inhibition |
| --- | --- | --- | --- |
| 12 | CCCc1nc2cc(CC(=O)OC)ccc2o1 |  | inactive: 49.7% |
| 17 | CCN1CCCC1CNC(=O)c1cc([N+](=O)[O-])c(N(C)C)cc1OC (stereo not given) | active: 4.15 µM |  |

Next structures:

Row | SMILES | Potency | activity change, negative = inhibition
24 | Cc1nc(-c2ccc(C(=O)NCCO)cc2)cs1 |  | inactive: 116%
25 | COc1ccc(-n2c(SC)nc3ccccc3c2=O)cc1 | inconclusive: 18.5 µM [inhibitor, single point] | 
26 | CCOC(=O)N1CCN(C(=O)CN(Cc2ccccc2)S(C)(=O)=O)CC1 |  | inactive: 244%
27 | S=C(NCc1ccccc1)NC1CCCc2ccccc21 (stereo not given) | inconclusive: 18.5 µM [inhibitor, single point] | 
28 | Cc1ccc(NS(=O)(=O)c2ccc(NC(=O)CN(c3cc([N+](=O)[O-])ccc3C)S(C)(=O)=O)cc2)c(C)c1 | inconclusive: 13.1 µM [inhibitor, single point] | 
29 | Fc1ccccc1CN1CCCN(C(=S)Nc2cccc(Cl)c2)C1 |  | inactive: -29.2%
30 | CCOc1cc(C(=O)OCc2ccc(OC)cc2)ccc1OCC(=O)N1CCOCC1 | inconclusive: 16.5 µM [inhibitor, single point] | 
31 | NC(=O)C1=C[C@@H](c2csc3ccccc23)C[C@@H](OCc2ccc(CO)cc2)O1 | inconclusive: 13.1 µM [inhibitor, partial curve] | 
32 | O=C(N/N=C1\CCCc2c1[nH]c1ccc([N+](=O)[O-])cc21)c1ccncc1 |  | inactive: 8.06%
33 | CCCCOc1ccc(CSc2ncn[nH]2)cc1 |  | inactive: 9.75%
34 | CCOC(=O)c1cc(-c2ccccc2C)n(Cc2cc(C)no2)n1 | inconclusive: 16.5 µM [inhibitor, single point] | 
35 | Cc1ccc(C(=O)O)cc1S(=O)(=O)N1CCOCC1 | active: 8.28 µM | 
36 | CCOc1ccc(C(=O)CCC(=O)Nc2ccncc2)cc1 | inconclusive: 18.5 µM [inhibitor, single point] | 
37 | CCOc1ccc(-n2ccnc(SCC(=O)NC3CCCC3)c2=O)cc1 |  | inactive: -9.02%
38 | C/C(=N\N=c1/scc(C)n1Cc1ccco1)c1cccc([N+](=O)[O-])c1 | inconclusive: 7.38 µM [inhibitor, partial curve] | 
39 | Cc1cc(C)n(-c2ccc(C(=O)Nc3ccccn3)cc2)n1 |  | inactive: 24.6%
40 | O=c1[nH]n(Cc2ccccc2)c(=O)c2ccccc12 |  | inactive: 100%
41 | CNc1ccc(C(=O)OCC(=O)Nc2ccnn2C(C)C)cc1[N+](=O)[O-] | inconclusive: 10.4 µM [inhibitor, single point] | 
42 | COc1cc(/C=C/C(=O)N2CCN(CC(=O)N3CCCC3)CC2)cc(OC)c1OC | inconclusive: 10.7 µM [inhibitor, partial curve, poor fit] | 
43 | CCCCCCCN1C2=NCCN2c2ccccc21 | inconclusive: 7.38 µM [inhibitor, partial curve, poor fit] | 
44 | COc1cccc(C(=O)NCC(=O)OCC(=O)Nc2cc(OC)c([N+](=O)[O-])cc2C)c1 |  | inactive: 14.8%
45 | CC(=O)NC(c1cccs1)c1cc([N+](=O)[O-])c2cccnc2c1O (stereo not given) | inconclusive: 11.7 µM [inhibitor, single point] | 
